For the assay, the target named is T1, RNA binding protein motif 3 (RBM3) (rat (endogenous in PC12)) (UniProt Q925G0).
T1 sequence: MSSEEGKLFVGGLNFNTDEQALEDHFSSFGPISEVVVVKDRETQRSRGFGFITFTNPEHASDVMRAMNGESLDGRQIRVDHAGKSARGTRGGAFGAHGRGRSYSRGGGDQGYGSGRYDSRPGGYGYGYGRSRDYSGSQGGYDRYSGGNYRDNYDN
Kind of assay: co-IP; anti-RBM3 rabbit polyclonal antibody (10 ug) cross-linked with DSS to magnetic beads, incubated with 500 ug total protein from PC12 cells (control or 6 h of OGD stimulation); low-pH elution, SDS-PAGE.

By UniProt entry, the sequences of proteins in these tests, tags left out.
UniProt D3ZYS7: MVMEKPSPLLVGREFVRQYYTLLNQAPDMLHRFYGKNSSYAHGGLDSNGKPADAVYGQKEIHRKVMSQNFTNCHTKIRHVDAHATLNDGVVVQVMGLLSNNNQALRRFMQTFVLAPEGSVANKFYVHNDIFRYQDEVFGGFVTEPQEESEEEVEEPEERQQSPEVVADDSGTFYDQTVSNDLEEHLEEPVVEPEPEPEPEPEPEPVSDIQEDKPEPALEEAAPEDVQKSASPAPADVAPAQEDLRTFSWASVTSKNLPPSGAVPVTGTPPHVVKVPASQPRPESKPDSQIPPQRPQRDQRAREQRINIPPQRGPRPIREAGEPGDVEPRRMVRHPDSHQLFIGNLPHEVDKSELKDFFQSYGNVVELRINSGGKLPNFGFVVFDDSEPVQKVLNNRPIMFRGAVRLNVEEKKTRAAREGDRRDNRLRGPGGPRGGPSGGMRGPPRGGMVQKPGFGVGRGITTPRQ

No constants are given. Whether binding was seen depends on the method and setting. Binding seen in cells or lysates may run through a third protein. Some entries that bind do so weakly or less than the wild type.

Regarding “GTPase-activating protein-binding protein 1 (G3BP1) (from UniProt D3ZYS7 1-465)”, the binding result is “binds”.

The values above are taken from PMC7492797.
